Measured values from PubChem BioAssay AID540276 (National Center for Advancing Translational Sciences (NCATS), 2011).
Out of some 300,000 compounds screened, about 5,400 (1.8%) were called active. The shares of active, inactive and inconclusive entries below differ from those in the screen. Calls come from the whole dose curve; tested in HEK293 cells. Potencies beside an inconclusive call are fits to weak or partial responses and may not hold up.

Experiment: qHTS for inhibitors of binding or entry into cells for Marburg Virus
Details: Marburg virus pseudotyped entry inhibition, cell reporter; activity change, negative = inhibition: at 37.8 µM (top of the series) unless noted
% is set by controls: 0 for no effect and ±100 for the full control effect; potency is the fitted concentration of half-maximal effect.

Q: With C=CCOC(=O)C(C(C)=O)C(NC(=O)OC)c1cccc(C)c1 (configuration not stated) as the molecule, how does the Potency read?
A: The Potency was inconclusive: 0.266 µM [inhibitor, full curve].

Q: With O=[N+]([O-])c1ccc(NN=Cc2ccc3c(c2)OCO3)nc1 as the molecule, how does the Potency read?
A: Its Potency is inconclusive: 2.82 µM [activator, single point].

Q: With CCOCC(=O)Nc1c(C(=O)Nc2ccc3c(c2)OCCO3)oc2ccccc12 as the molecule, how does the Potency read?
A: The Potency was inconclusive: 7.08 µM [inhibitor, full curve, poor fit].

Q: For CCOC(=O)c1c(-c2ccccc2)csc1NC(=O)C1CCCO1 (configuration not stated), which “activity change, negative = inhibition” value is on record?
A: The value was inactive: -19.3%.

Q: Which Potency does the source give for O=C(O)c1cccc(N/N=C/c2sc(N3CCOCC3)nc2-c2ccccc2)c1 here?
A: Its Potency is inconclusive: 4.47 µM [activator, single point].

Q: Which “activity change, negative = inhibition” value does the source give for O=C(CCN1CCN(c2ccc(F)cc2)CC1)Nc1ccc(F)cc1 here?
A: The value was inactive: 0.0357%.

Q: For CCc1ccc(C(=O)CCC2CCCCC2=O)cc1 (configuration not stated), which “activity change, negative = inhibition” value is on record?
A: Its value is inactive: 17.3%.

Q: Which “activity change, negative = inhibition” value does the source give for Cc1c(C(=O)OCc2ccccc2)[nH]c2c1C(=O)CC(c1ccc(N(C)C)cc1)C2 (configuration not stated) here?
A: The value was inactive: 0.497% [at 46.1 µM].

Q: Which “activity change, negative = inhibition” value does the source give for CCCn1c(N)c(N(CCOC)C(=O)c2ccc(F)cc2)c(=O)[nH]c1=O here?
A: Its value is inactive: 8.72% [at 46.1 µM].

Q: Which Potency does the source give for COC(=O)c1sccc1NC(=O)CCC1CCCCC1 here?
A: The Potency was inconclusive: 0.092 µM [inhibitor, full curve, poor fit].

Q: With O=C(NNC(=S)Nc1ccc(Br)cc1Cl)c1ccco1 as the molecule, how does the Potency read?
A: Its Potency is inconclusive: 35.5 µM [activator, single point].

Q: For O=C(/C=C/c1cccs1)NC1CCS(=O)(=O)C1 (configuration not stated), which “activity change, negative = inhibition” value is on record?
A: The value was inactive: 18% [at 14.2 µM].

Q: With Cc1cc(CNC(=O)C(C)n2cc([N+](=O)[O-])cn2)c2ccccc2n1 (configuration not stated) as the molecule, how does the Potency read?
A: Its Potency is inconclusive: 0.282 µM [inhibitor, full curve, poor fit].

Q: With CCOC(=O)c1c(NC(=O)CCl)sc(CN(C)C)c1-c1ccccc1 as the molecule, how does the Potency read?
A: The Potency was inconclusive: 14.1 µM [inhibitor, single point].

Q: With O=C(/C=C/Nc1cccc(C(F)(F)F)c1)c1ccco1 as the molecule, how does the Potency read?
A: The Potency was inconclusive: 15.8 µM [inhibitor, single point].

Q: Which Potency does the source give for O=C(Nc1ccc(Cl)cc1C(=O)Nc1ccncc1)c1ccco1 here?
A: Its Potency is inconclusive: 13 µM [inhibitor, partial curve, poor fit].

Q: With CCOC(=O)N1CCC(N(CCN(C)C)C(=S)Nc2cc(Cl)ccc2C)CC1 as the molecule, how does the Potency read?
A: Its Potency is inconclusive: 11.2 µM [inhibitor, partial curve, poor fit].

Q: With O=C(C1CCC(=O)N1Cc1ccc(F)cc1)N1CCC2(CC1)OCCO2 (configuration not stated) as the molecule, how does the “activity change, negative = inhibition” value read?
A: Its value is inactive: 1.67%.

Q: For Cc1cc2occ(CC(=O)NCc3cccs3)c2cc1C(C)C, which Potency is on record?
A: The Potency was inconclusive: 35.5 µM [inhibitor, single point].

Q: With O=C(O)c1ccccc1NC(=O)c1cc(-c2ccccc2)nc2ccccc12 as the molecule, how does the Potency read?
A: Its Potency is inconclusive: 0.562 µM [inhibitor, full curve, poor fit].

Q: With CC(C)c1nccn1S(=O)(=O)c1cc([N+](=O)[O-])ccc1Cl as the molecule, how does the Potency read?
A: Its Potency is inconclusive: 2.82 µM [activator, single point].

Q: Which Potency does the source give for CCCCOc1c(Br)cc(CNCCCN2CCOCC2)cc1OC here?
A: Its Potency is inconclusive: 20 µM [inhibitor, single point].

Q: Which “activity change, negative = inhibition” value does the source give for Clc1ccc(CSc2ccc(-c3ccccn3)nn2)cc1 here?
A: Its value is inactive: 6.14% [at 46.1 µM].

Q: For CCOC(=O)C1=CN(CCC=C(C)C)C(=O)NC1c1ccccc1 (configuration not stated), which “activity change, negative = inhibition” value is on record?
A: The value was inactive: 7.06% [at 14.2 µM].

Q: With COC(CNC(=O)c1cccc2c1C(=O)N(Cc1cccnc1)C2)OC as the molecule, how does the Potency read?
A: Its Potency is inconclusive: 6.51 µM [activator, single point].

Q: With COc1ccc(C(C)=O)cc1COC(=O)c1ccc(OCc2c(C)noc2C)cc1 as the molecule, how does the “activity change, negative = inhibition” value read?
A: The value was inactive: -7.3%.

Q: For CC(C)CCNC(=O)COc1ccc2c(c1)C(=O)CC(C)(C)O2, which Potency is on record?
A: Its Potency is inconclusive: 10 µM [activator, single point].

Q: Which Potency does the source give for O=c1oc2ccccc2n1CSc1nc2ccccc2s1 here?
A: The Potency was inconclusive: 1.12 µM [activator, full curve, poor fit].

Q: Which Potency does the source give for CN(CC(=O)Nc1ccccc1Cl)C(=O)c1ccc(Cl)c(S(=O)(=O)N2CCCCCC2)c1 here?
A: Its Potency is inconclusive: 17.8 µM [inhibitor, partial curve, poor fit].

Q: For Cc1ccc(CNC(=O)CCc2c(C)nc3c(-c4ccc(F)cc4)c(C)nn3c2C)cc1, which “activity change, negative = inhibition” value is on record?
A: Its value is inactive: 2.56% [at 46.1 µM].

Q: With COc1ccccc1/C=N/NC(=O)NC12CC3CC(CC(C3)C1)C2 as the molecule, how does the Potency read?
A: The Potency was inconclusive: 22.4 µM [inhibitor, single point].

Q: For CC(C)(C)OC(=O)N1CCCN(C(=O)Nc2ccc(C(F)(F)F)cc2)CC1, which Potency is on record?
A: The Potency was inconclusive: 7.08 µM [activator, partial curve, poor fit].

Q: With O=C(OCc1nnc(-c2ccccc2)o1)c1cn(-c2ccccc2)nc1-c1ccccc1 as the molecule, how does the Potency read?
A: The Potency was inconclusive: 35.5 µM [inhibitor, single point].

Q: For Cc1ccc(NNC(=O)c2c(F)cccc2Cl)cc1Cl, which “activity change, negative = inhibition” value is on record?
A: Its value is inactive: -18.7% [at 46.1 µM].

Q: For CCc1ccc(NS(=O)(=O)c2ccc3[nH]cc(C(=O)N4CCc5ccccc54)c(=O)c3c2)cc1, which Potency is on record?
A: The Potency was inconclusive: 16.4 µM [activator, single point].

Q: For Cc1cccc(NC(=O)CSc2nnc(-c3ccccc3)n2N)c1, which “activity change, negative = inhibition” value is on record?
A: The value was inactive: -0.441%.

Q: Which “activity change, negative = inhibition” value does the source give for Cc1ccc(-c2nc(-c3ccncc3)no2)cc1Cl here?
A: The value was inactive: 22.4%.

Q: For O=C(Cc1ccc(-c2ccccc2)cc1)NCc1cccnc1, which Potency is on record?
A: The Potency was inconclusive: 2.24 µM [inhibitor, partial curve, poor fit].

Q: Which Potency does the source give for C/C(=N\NC(=O)OC(C)(C)C)c1ccc[nH]1 here?
A: The Potency was inconclusive: 28.2 µM [inhibitor, single point].

Q: Which Potency does the source give for O=P(Nc1cccnc1)(Oc1ccccc1)Oc1ccccc1 here?
A: Its Potency is inconclusive: 0.231 µM [inhibitor, partial curve, poor fit].

Q: For Cc1ccccc1NC(=O)c1ccc(NS(=O)(=O)c2cc(C(C)(C)C)cc(C)c2C)cc1, which Potency is on record?
A: Its Potency is inconclusive: 25.1 µM [inhibitor, single point].

Q: For Cc1ccc(S(=O)(=O)NCc2ccc(C(=O)N3CCN(c4ccccn4)CC3)cc2)cc1, which Potency is on record?
A: Its Potency is inconclusive: 35.5 µM [inhibitor, single point].

Q: With CNC(=O)C1CCN(C(=O)c2ccc(-c3ccccc3)cc2)CC1 as the molecule, how does the Potency read?
A: The Potency was inconclusive: 35.5 µM [activator, single point].

Q: For Cc1cccc(C)c1NC(=O)COC(=O)CCc1ccc(S(=O)(=O)N2CCCCC2)cc1, which “activity change, negative = inhibition” value is on record?
A: Its value is inactive: 10.5%.

Q: With COc1ccc(N2C(=O)c3ccccc3C2=O)cc1 as the molecule, how does the Potency read?
A: Its Potency is “inactive”.

Q: For Cc1ccccc1-c1nnc(SCC(=O)N(C)c2ccccc2)o1, which Potency is on record?
A: Its Potency is inconclusive: 3.55 µM [activator, single point].

Q: For Cc1ccc(C(=O)NCC(c2ccco2)N2CCOCC2)cc1 (configuration not stated), which “activity change, negative = inhibition” value is on record?
A: The value was inactive: 17.7%.

Q: For Cc1cccc(OCc2nnc(SCC(=O)NC3CCCCC3)n2C)c1, which “activity change, negative = inhibition” value is on record?
A: The value was inactive: 26.3% [at 46.1 µM].

Q: With CC(CC(=O)O)CC(=O)Nc1cc([N+](=O)[O-])ccc1O (configuration not stated) as the molecule, how does the “activity change, negative = inhibition” value read?
A: The value was inactive: -2.97% [at 46.1 µM].

Q: With CCCCOc1ccc(C2CCC(C(C)=O)C(C)C2)cc1 (configuration not stated) as the molecule, how does the “activity change, negative = inhibition” value read?
A: The value was inactive: 2.85% [at 46.1 µM].

Q: Which Potency does the source give for COC1(OC)C(/C=C/c2ccc(C)cc2)C(C#N)(C#N)C1(OC)OC (configuration not stated) here?
A: Its Potency is inconclusive: 14.1 µM [inhibitor, single point].

Q: Which Potency does the source give for CCC1CCCCN1S(=O)(=O)c1ccc(C(=O)N(CCCN(C)C)c2nc3cc4c(cc3s2)OCO4)cc1 (configuration not stated) here?
A: The Potency was inconclusive: 28.2 µM [inhibitor, partial curve, poor fit].

Q: Which Potency does the source give for CNC(=O)NC(=O)C(NC1CCCc2ccccc21)c1ccccc1 (configuration not stated) here?
A: Its Potency is inconclusive: 1.78 µM [inhibitor, full curve, poor fit].

Q: With O=C(CSc1nc2ccsc2c(=O)n1Cc1ccccc1)NCc1ccco1 as the molecule, how does the “activity change, negative = inhibition” value read?
A: Its value is inactive: -4.72%.

Q: For Cc1nn(C(C)(C)C)c(OC(=O)c2ccco2)c1Sc1ccccc1, which Potency is on record?
A: The Potency was inconclusive: 16.4 µM [inhibitor, single point].

Q: For Cc1cc(=O)oc2cc(NC(=O)C(C)N3C(=O)C4CCCCC4C3=O)ccc12 (configuration not stated), which Potency is on record?
A: Its Potency is inconclusive: 2.51 µM [inhibitor, partial curve, poor fit].

Q: With CC1CCCCC1NC(=O)CCCN1C(=O)c2ccccc2C1=O (configuration not stated) as the molecule, how does the Potency read?
A: Its Potency is inconclusive: 1.12 µM [activator, full curve, poor fit].

Q: With CCn1cnc2cc(NCc3ccc(C)cc3)ccc21 as the molecule, how does the “activity change, negative = inhibition” value read?
A: The value was inactive: 1.29%.

Q: For Cc1ccc(OCC(=O)N2CCN(C3CCC(c4ccccc4)CC3)CC2)cc1 (configuration not stated), which Potency is on record?
A: The Potency was inconclusive: 0.355 µM [activator, full curve, poor fit].

Q: Which Potency does the source give for Cc1ccc(Cn2ccc(C3CC3)n2)cc1 here?
A: The Potency was inconclusive: 1.78 µM [activator, partial curve, poor fit].

Q: With CC(C)OC(=O)CCCN1C(=O)c2ccc(N)cc2C1=O as the molecule, how does the Potency read?
A: Its Potency is inconclusive: 11.2 µM [activator, single point].

Q: With O=C(Cc1c(O)c2ccccc2[nH]c1=O)NC1CCCCCC1 as the molecule, how does the “activity change, negative = inhibition” value read?
A: Its value is inactive: 24.6%.

Q: Which Potency does the source give for O=C(N/N=C\c1ccco1)Nc1cccc(Cl)c1 here?
A: Its Potency is inconclusive: 1.16 µM [activator, partial curve].

Q: For COc1ccccc1CC(=O)NCC(c1ccco1)N1CCCCC1 (configuration not stated), which Potency is on record?
A: Its Potency is inconclusive: 4.47 µM [inhibitor, single point].

Q: For CCN(CC)S(=O)(=O)c1cc(NC(=O)C(C)N2CC=C(c3ccccc3)CC2)ccc1C (configuration not stated), which Potency is on record?
A: Its Potency is inconclusive: 25.1 µM [inhibitor, single point].

Q: For COc1ccccc1NC(=O)c1sc2nc3c(c(C(F)(F)F)c2c1N)CN(C(C)=O)CC3, which “activity change, negative = inhibition” value is on record?
A: Its value is inactive: -1.53% [at 46.1 µM].

Q: Which “activity change, negative = inhibition” value does the source give for COc1ccc(C(=O)COC(=O)c2cccnc2SC)cc1 here?
A: Its value is inactive: -18.2% [at 46.1 µM].

Q: For C=CCNC(=S)/C(=C(\[O-])c1ccc(Cl)cc1)[n+]1ccccc1, which Potency is on record?
A: Its Potency is inconclusive: 31.6 µM [activator, single point].

Q: With Cc1ccccc1CCNC(=O)c1ccc(NC(=O)N2CC(C)Sc3ccccc32)cc1 (configuration not stated) as the molecule, how does the “activity change, negative = inhibition” value read?
A: The value was inactive: 27.8% [at 46.1 µM].

Q: Which “activity change, negative = inhibition” value does the source give for COc1ccc(-c2nc(Cc3ccc(Cl)cc3)no2)cc1OC here?
A: The value was inactive: -22%.

Q: For O=C1/C(=C/c2cccs2)SC(=S)N1C1CCS(=O)(=O)C1 (configuration not stated), which Potency is on record?
A: The Potency was inconclusive: 12.6 µM [inhibitor, single point].

Q: With N/C(=N\OC(=O)COc1ccccc1)c1ccccn1 as the molecule, how does the Potency read?
A: The Potency was inconclusive: 6.51 µM [activator, single point].
